Experimental data published in PubChem BioAssay AID1259354 (Paczesny and Yang Labs, IUPUI and University of Michigan, 2018).
The campaign covered roughly 78,000 compounds. About 1,800 (2.3%) were called active. This list was built around the results that the source calls inconclusive (neither active nor inactive); the mix of calls is not that of the screen. Rule as the data show it: active = inhibition above about 30%; inconclusive = mostly about 10% to 28%; inactive = weaker than that.

The chains behind the UniProt entries cited, without tags or fusion partners. Where a name states a change or a piece, a line headed by the entry shows the natural chain unless it says otherwise.
UniProt Q01638: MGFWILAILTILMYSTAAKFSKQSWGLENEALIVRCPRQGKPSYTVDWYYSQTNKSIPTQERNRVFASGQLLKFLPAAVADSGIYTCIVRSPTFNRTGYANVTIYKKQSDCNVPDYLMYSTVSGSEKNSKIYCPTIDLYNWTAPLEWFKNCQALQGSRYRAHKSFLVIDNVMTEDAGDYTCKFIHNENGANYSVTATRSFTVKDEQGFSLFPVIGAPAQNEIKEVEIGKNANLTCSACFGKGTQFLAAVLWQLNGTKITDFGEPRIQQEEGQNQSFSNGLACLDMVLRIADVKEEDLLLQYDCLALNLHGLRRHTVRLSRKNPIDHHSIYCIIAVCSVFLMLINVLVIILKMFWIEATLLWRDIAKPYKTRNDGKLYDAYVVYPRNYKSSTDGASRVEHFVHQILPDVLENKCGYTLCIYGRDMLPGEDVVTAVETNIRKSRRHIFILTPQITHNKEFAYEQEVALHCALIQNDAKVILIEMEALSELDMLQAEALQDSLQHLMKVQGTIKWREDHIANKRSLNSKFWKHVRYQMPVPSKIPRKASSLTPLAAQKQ

Biological target: Interleukin-1 receptor-like 1 (Homo sapiens) (UniProt Q01638)
Experiment: blocks human ST2 binding to IL-33, primary screen, biochemical, AlphaLISA (AID 1259354)
Settings: AlphaLISA ST2-Fc/biotin-IL-33 interaction, 1 h; at 17 µM, hits give high values

SMILES	inhibition
CCCCOc1ccc(C(=O)Nc2ccc(NC(C)=O)cc2)cc1	inconclusive: 22%
CN1C[C@@H](N)C[C@H]1C(=O)N1CCOc2c(O)cc(-c3cccnc3)cc2C1	inconclusive: 14%
N#C/C(=C\c1ccc(O)c(O)c1)C(=O)NCCCc1ccccc1	inconclusive: 14%
CCc1c(C)sc(NC(=O)c2noc3c2CCc2cc(OC)ccc2-3)c1C#N	inactive
CC(C)COC(=O)CCC(=O)Nc1nccs1	inconclusive: 16%
Cc1ccoc1C(=O)N1CCNCC1C(=O)NC1CC1 (centres undefined)	inconclusive: 14%
O=C(NC[C@H]1CCc2ccccc2O1)c1cnn2c1CCCC2	inactive
CCc1noc(CN(CC)Cc2ccc3cccc(O)c3n2)n1	inactive
O=C(Nc1ccccc1)O[C@@H]1CO[C@H]2[C@@H]1OC[C@@H]2NC(=O)C1CCCCC1	inconclusive: 12%
O=C(/C=C/c1ccc(Cl)cc1Cl)Nc1cc2cccc([N+](=O)[O-])c2oc1=O	inconclusive: 16%
CCC(=O)Nc1cccc(C(=O)NC2C=CS(=O)(=O)C2)c1 (centres undefined)	inactive
CCn1cnc2sc(C(=O)N3CCC4(CC3)OCCO4)c(C)c2c1=O	inactive
CCCS(=O)(=O)c1c(S(=O)(=O)CCC)c2c(N)cccn2c1C(=O)c1ccc(C)cc1C	inconclusive: 19%
O=C(c1ccco1)N1CCN(c2ccc([N+](=O)[O-])c(NCc3ccco3)c2)CC1	inconclusive: 12%
CN(C)c1ccc(C2SCCN2C(=O)c2ccc([N+](=O)[O-])cc2)cc1 (centres undefined)	active: 30%
CCS(=O)(=O)c1ccc2oc(=O)c(C=C(O)c3ccc(Cl)cc3)nc2c1	inconclusive: 10%
CCCOC(=O)C1=C(C)NC2=C(C(=O)C(C(=O)OC)C(C)C2)C1c1ccc(N(CC)CC)cc1 (centres undefined)	inconclusive: 12%
Cc1ccc(Cc2c(C)nc3nc(SCC(=O)N4CCOCC4)nn3c2C)cc1	inconclusive: 18%
COC(=O)[C@@H]1CN(C(=O)Nc2ccccc2)CCN1C(C)=O	inconclusive: 14%
Cc1cc(NC(=O)c2ccc(Br)o2)ccc1NC(=O)c1cc2ccccc2o1	inconclusive: 29%
CC(NCc1nc(Cc2ccccc2F)no1)c1cn2ccsc2n1 (centres undefined)	inconclusive: 18%
O=C(Cc1c(C(=O)O)[nH]c2ccccc12)NCC1(c2ccccc2)CCCC1	inactive
CCOC(=O)N1CCC(NC(=O)c2ccc3oc(CCCc4ccccc4)nc3c2)CC1	inconclusive: 11%
Nc1ncnc(Sc2nc3ccccc3[nH]2)c1[N+](=O)[O-]	inactive

Taken from above:
COC(=O)[C@@H]1CN(C(=O)Nc2ccccc2)CCN1C(C)=O | inhibition: inconclusive: 14%
CN(C)c1ccc(C2SCCN2C(=O)c2ccc([N+](=O)[O-])cc2)cc1 (centres undefined) | inhibition: active: 30%
Nc1ncnc(Sc2nc3ccccc3[nH]2)c1[N+](=O)[O-] | inhibition: inactive
CCOC(=O)N1CCC(NC(=O)c2ccc3oc(CCCc4ccccc4)nc3c2)CC1 | inhibition: inconclusive: 11%
O=C(/C=C/c1ccc(Cl)cc1Cl)Nc1cc2cccc([N+](=O)[O-])c2oc1=O | inhibition: inconclusive: 16%
CC(NCc1nc(Cc2ccccc2F)no1)c1cn2ccsc2n1 (centres undefined) | inhibition: inconclusive: 18%

The list goes on:

SMILES	inhibition
Fc1cnc(N2CCN(c3ccccc3)CC2)nc1N1CCN(c2ccccc2)CC1	inconclusive: 18%
CN(Cc1cc(C(C)(C)C)n[nH]1)c1nc(CCN)nc2ccccc12	inconclusive: 14%
c1cncc(CN2CCCC(n3cc(-c4ccc5c(c4)OCCO5)nn3)C2)c1 (centres undefined)	inconclusive: 21%
O=C(Nc1ccccc1)NC1CCCC1	inconclusive: 11%
CC1(c2ccc(Cl)cc2)CC(C)(C)N(C(=O)CSC#N)c2ccccc21 (centres undefined)	inactive
COc1cc(C2C(N3C(=O)c4ccccc4C3=O)C(=O)N2c2cccc(C)c2)cc(OC)c1OC (centres undefined)	inconclusive: 12%
CCCC(=O)Nc1ccc(CC(=O)NCc2ccno2)cc1	inactive
COc1ccc(NS(=O)(=O)c2cccc(C(=O)Nc3ccccc3C(=O)O)c2)cc1	inactive
C=C(C)C(C)(C)C(=O)N1Cc2cnc(Cc3ccc(OC)cc3)nc2C1	inconclusive: 10%
Fc1ccccc1Cc1noc(CN2CCCN(Cc3ccccc3F)CC2)n1	inconclusive: 15%
COCCC(=O)Nc1cc(C(=O)N(C)C(C)c2nc(C)cs2)cc2nc(-c3ccccc3)n(C)c12 (centres undefined)	inactive
COc1ccc(C2=NN(c3ccccc3)CC2)cc1	inconclusive: 17%
CS(=O)(=O)NC[C@H]1O[C@@H](CC(=O)Nc2ccccc2)[C@H](O)[C@@H]1O	inactive
O=c1c(-c2ccc(Cl)cc2)c(C(F)(F)F)oc2cc(O)ccc12	inconclusive: 20%
Cc1nnc([C@H]2CCN(Cc3ccc(S(C)(=O)=O)cc3)C2)o1	inconclusive: 14%
Cc1cc(C)c(S(=O)(=O)N2CCC(n3cnc4cccnc43)CC2)cc1C	inconclusive: 12%
Cc1sc(NC(=O)C(C)(C)C)c(C(N)=O)c1C	inactive
Cc1noc(C)c1CNC(=O)C(O)c1ccc(C(F)(F)F)cc1 (centres undefined)	inactive
CCC(=O)N1c2ccccc2C(Nc2ccccc2)CC1C (centres undefined)	inconclusive: 14%
Cc1cccc(C(C)C)c1NC(=O)c1ccc(Br)cc1	inactive
COCCN(Cc1nccs1)C(=O)c1cc(C)nc2ccc(C)cc12	inconclusive: 13%
O=C(Nc1ccccc1[N+](=O)[O-])C1=NN=CC1[N+](=O)[O-] (centres undefined)	inactive
CC(C)(C)c1csc(NC(=O)c2cccc(F)c2)n1	inconclusive: 12%
CCC(CO)N(Cc1ccco1)C(=O)c1cn(C)c2ccc(C)cc2c1=O (centres undefined)	inconclusive: 19%

SMILES	inhibition
CC(C)N(Cc1cc2ccccc2o1)CC1CCC(=O)N1 (centres undefined)	inconclusive: 24%
COc1c(Cl)cc(Cl)cc1C(=O)Nc1ccccc1N1CCOCC1	inactive
COc1ccc(C(C)=O)cc1N1C(=O)C2C3C=CC(C3)C2C1=O (centres undefined)	inactive
CN(Cc1ccccc1)CC1CCCN(CCc2ccc(F)cc2)C1 (centres undefined)	inactive
COc1ccccc1C1C2=C(N=C3SCC(=O)N31)c1ccccc1CC2 (centres undefined)	inconclusive: 12%
CCOC(=O)c1c(NC(=O)COc2ccc3c(C)cc(=O)oc3c2)sc2c1CCCC2	inactive
Cc1cc(C)n(-c2cccc(CN3CCCC4(CC3)CNC(=O)O4)c2)n1 (centres undefined)	inconclusive: 10%
CCC(C)NC(=O)C1CC(=O)N(c2ccc(F)cc2)C1 (centres undefined)	active: 33%
CCn1cc(SCC(=O)Nc2nc3ccccc3s2)c2ccccc21	inactive
COc1ccccc1C1CCCN1S(=O)(=O)NCc1ccccc1 (centres undefined)	inconclusive: 17%
COC(=O)c1sc2ccccc2c1NC(=O)c1ccccc1	inactive
Cc1ccccc1Oc1nc2c(c(=O)n(C)c(=O)n2C)n1Cc1ccccc1	inconclusive: 27%
O=C(NC[C@H]1O[C@@H](CC(=O)N2CCN(c3ccccc3)CC2)[C@H](O)[C@@H]1O)c1ccccc1	inconclusive: 10%
CC(=O)N(c1ccc2oc3c(c2c1)CCCC3)S(=O)(=O)c1cccc([N+](=O)[O-])c1	inconclusive: 13%
COc1cc2[nH]c(=O)n(CCCC(=O)N3CCN(c4ncccn4)CC3)c(=O)c2cc1OC	inactive
N#C/C(=C/c1ccccc1Cl)c1nc(-c2ccccc2)cs1	active: 65%
COc1cccc(CN2C(=O)N(CCC(C)C)C3(CCN(Cc4ccsc4)CC3)C2=O)c1	inconclusive: 12%
NCCc1cc(N2CCC(N3CCC(O)CC3)CC2)ncn1	inactive
COc1ccccc1C1SCCN1S(=O)(=O)c1ccc(C)c([N+](=O)[O-])c1 (centres undefined)	inconclusive: 14%
Cc1ccc(C)c(OCc2cc(C(=O)N3CCC(N4CCOCC4)CC3)no2)c1	inconclusive: 15%
O=C(CN1C(=O)/C(=C\c2cccc(Cl)c2)Sc2ccccc21)NCCc1ccccc1	inactive
COc1ccc(OC)c(CN2CCN(c3ncnc4[nH]ccc34)CC2)c1	inactive
Oc1ccccc1CN[C@H]1[C@H](O)[C@@H](N2CCC(Cc3ccccc3)CC2)[C@@H]2OC[C@H]1O2	inactive
C=CCn1cc(CNC2CC(=O)N(Cc3cccc4ccccc34)C2)c(C)n1 (centres undefined)	inactive

SMILES	inhibition
Cc1cccc(N2C(=O)NC(=O)/C(=C/c3cn(CC(=O)Nc4ccccc4)c4ccccc34)C2=O)c1	inactive
CCOC(=O)c1ccc2c(c1)N(Cc1ccccc1)C(=O)CS2	inactive
Cc1ccc(NC(=O)CSc2nnc3c(n2)[nH]c2ccccc23)cc1Cl	inconclusive: 19%
O=[N+]([O-])c1cccc(S(=O)(=O)Nc2cc(Cl)c(O)c(Cl)c2Cl)c1	inconclusive: 23%
O=C(Nc1ccc(Oc2ccccc2F)cc1)C1CCN(C(=O)CC2=CCCCC2)CC1	inconclusive: 18%
O=C(/C=C/c1cccs1)N1CCC2(CCCN(CC3CCCCC3)C2)C1 (centres undefined)	inconclusive: 20%
Cc1cccn2c(=O)c(C=Nc3ccccc3)c(NCc3ccccc3)nc12	active: 39%
COc1ccccc1NC1=CC(=NS(=O)(=O)c2ccc(C)cc2)c2ccccc2C1=O	active: 94%
CCc1ccc(S(=O)(=O)N2CCN(c3nc(C)cc(Nc4ccc(OC)cc4)n3)CC2)cc1	inconclusive: 17%
O=C(Nc1cccc(F)c1)c1cc2ccccc2oc1=O	inactive
CC(C)N(C(=O)C1CCCCC1C(=O)O)C(C)C (centres undefined)	inconclusive: 16%
OC1(c2ccc(Cl)cc2)CCN(Cc2c[nH]c3ccccc23)CC1	inconclusive: 11%
O=C(Cc1cccc(F)c1)N1CCOc2ccc(CN3CCN(Cc4ccccn4)CC3)cc2C1	inconclusive: 24%
COc1ccc(C(=O)N2CCN(C(=O)c3cn(CCc4ccccc4)nn3)CC2)cc1	inconclusive: 10%
Cc1[nH]nc(-c2ccc(O)c(O)c2O)c1Oc1ccccc1	active: 42%
O=C(O)CN=C(NS(=O)(=O)c1ccc(Cl)cc1)c1ccccc1	inconclusive: 12%
Cc1cc(NC(=O)CSc2nncn2C)ccc1Cl	inactive
Cc1ccsc1C(CNC(=O)c1cnn2ccn(C)c12)N(C)C (centres undefined)	inconclusive: 13%
CCC(Oc1ccccc1)C(=O)Nc1nc(C)c(C(=O)N(C)C)s1 (centres undefined)	inconclusive: 16%
Cc1c(N=Cc2ccc(O)cc2)c(=O)n(-c2ccccc2)n1C	inconclusive: 17%
O=[N+]([O-])c1ccccc1S(=O)(=O)N1CCN(Cc2ccccc2Cl)CC1	inactive
CCc1ccccc1NC(=O)CN(c1ccccc1)S(=O)(=O)c1ccccc1[N+](=O)[O-]	inconclusive: 16%
